Results: PubChem BioAssay AID1508600 (Functional Genomics Laboratory (NCATS/FGL), 2020)
The campaign covered roughly 53,000 sequences. About 3,700 (7%) were called active.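 How the source made its calls: active means gene knockdowns whose robust z-score for IL-1 alpha signal is at least 2 or at most -2, so actives lie on both sides; inactive means the rest.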 Some of the results follow.

test: Components of the Cytosolic LPS Sensing Pathway: Gene Identification via Genome-wide siRNA Screen; settings: RAW264.7 macrophages, IL-1a HTRF, actives lie on both sides, screened at 100 nM (by protocol), cells primed 5 h with Pam3CSK4 first;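 further: robust z of the log signal after scaling to non-targeting control siRNA wells of the plate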
Outline: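 RAW264.7 mouse macrophages reverse-transfected with single siRNAs (100 nM final) for 48h, primed with Pam3CSK4 for 5 hours, then transfected with LipidA for 24 hour. Supernatant IL-1a read by HTRF; values normalized to negative-control median, log-transformed robust z-scores.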

| Sequence | z-score |
| --- | --- |
| GCAUGAACUUACCCUAUUATT against Vmn1r197 | inactive: -1.25 |
| GCAGAGCAAAGACCUGACUTT against Ccdc157 | inactive: 0.221 |
| GGUUCUGCCCUAUUUGUCATT against Tle5 | inactive: -0.606 |
| GGGCAACUACGAGUCUCUCTT against Zfp398 | inactive: 0.273 |
| CGUGUUGGAGUACAAUGAGTT against Imp3 | inactive: -0.927 |
| GGAAGUCAACAAUGCAUUCTT against Olfr1451 | inactive: -0.133 |
| GGGCUCCUUUUUUUUUUUUTT against Frat1 | active: -2.55 |
| CCUGAUCGACUUCAACUUGTT against Tmem39b | inactive: 0.0949 |
| GCAAUCAAAAGAUUGUCACTT against Gmeb1 | inactive: 0.17 |
| CCAGACAUGAAACUUGUAUTT against Mms19 | inactive: -0.165 |
| GCCCAACCUGUCCAUACUUTT against Guca2b | inactive: -0.193 |
| GGAAGAAAUGGAAAUGGAUTT against Nek9 | inactive: 0.837 |
| GGUGUCAUCACAAAAAGAATT against Epha1 | inactive: 1.21 |
| GGACUGAGGGCAAUGAAAATT against Chst15 | inactive: 0.523 |
| GCCCUGGAAGAAUUAUGUGTT against Nat8 | inactive: -0.0773 |
| GCAGUUUUGGUGCAUGGGATT against Coq6 | inactive: -0.424 |
| CCGCGUACACCAACACUCATT against Hoxa2 | inactive: 0.323 |
| GCUGAAGACCGACUACAAGTT against Cnih1 | inactive: 0.569 |
| GGAGAUCGAUAUUCGACUATT against 4933434E20Rik | active: -2.48 |
| GCCGUCAAAAAUAUGCUGATT against Stim1 | inactive: -0.0018 |
| GGCACACAGUUUUGUACAUTT against Nfat5 | active: 2.25 |
| GCCAAACACUCGACUCUAATT against Gm11733 | inactive: -0.823 |
| CGGUAUUUGUCUGUAUCCUTT against Npc2 | inactive: -1.71 |

3 entries picked at random from those above:

| Sequence | z-score |
| --- | --- |
| GGAGAUCGAUAUUCGACUATT against 4933434E20Rik | active: -2.48 |
| GCAAUCAAAAGAUUGUCACTT against Gmeb1 | inactive: 0.17 |
| CGUGUUGGAGUACAAUGAGTT against Imp3 | inactive: -0.927 |

(next part)

| Sequence | z-score |
| --- | --- |
| GCACCCUAAUGUGAUCGCATT against Cdk19 | inactive: -1.34 |
| GGUGAUAGUCCACGAGGUUTT against Esyt1 | inactive: 0.889 |
| GGCUCAGUCCCAUCAGCAUTT against Gdf7 | inactive: 0.524 |
| GGAAGGAACUUUUUGAGUATT against Trim61 | inactive: -0.467 |
| GGCACAGACCUCACAGUUATT against Olfr64 | inactive: 0.534 |
| CCCAAAUACCUACCAUCUCTT against Slc4a9 | inactive: -0.44 |
| CCACAUCUGAACAUUAGUCTT against Phxr1 | inactive: -0.55 |
| GGUCACCUUUGCACAGUACTT against Atpsckmt | inactive: -0.758 |
| GGUUUUUGUGGAGACACUGTT against Ap3s2 | inactive: -1.41 |
| GGUUGAUAACAGGAAGUUUTT against Spred2 | inactive: 0.651 |
| GGAAGGUUGCUGAAGAACGTT against Zfp647 | inactive: 0.592 |
| GCUCUACCCUGAAGAUAUATT against Immt | active: 2.44 |
| GGACAUGGAACUGGAUGAATT against Ciita | active: -2.49 |
| GCCACGGCCAGUAAAACAUTT against Cdcp1 | inactive: 0.335 |
| GGGUGAGACUUUUAUUAUUTT against Epdr1 | inactive: -0.468 |
| GGAACGAUGGAUACUUGGGTT against Porcn | inactive: 1.06 |
| GGUCUGAAAAUGGAAUACCTT against Vps13a | inactive: 1.8 |
| GGCAGAUGUAACCAUAUCATT against Nfe2 | inactive: -1.09 |
| CCUCUGCGUAGUUUCCUUGTT against Olfr345 | inactive: 0.533 |
| GGCAGAAGCACUGUGGACUTT against Agr2 | inactive: -1.25 |
| GGACAGGAAGAUGUGGCUUTT against Ly6d | inactive: -0.429 |
| GCCAAGUUUCUUUUAGAGATT against Hmgcr | inactive: -0.502 |
| GGUUAAAGACCAUGUUUAUTT against Moxd1 | inactive: -1.09 |

| Sequence | z-score |
| --- | --- |
| CGUAGUUUUACAGAUCACUTT against Tenm3 | inactive: -1.58 |
| GCUUAGAUAUUUCUUAUGCTT against Cenpl | inactive: 0.472 |
| GCUACUUUUUAGUGGUUGUTT against Olfr1298 | inactive: -0.781 |
| GAAAAAUGUGCAAGAGACUTT against Olfr1218 | inactive: -1.29 |
| GGCCUUGAAGGAGUAUGAGTT against Atp2a3 | active: -2.62 |
| CGGAUUGGCCAACAACGCATT against Slc24a3 | inactive: -0.42 |
| GGAAGAUGAUGAGAUAAACTT against Herpud1 | inactive: -1.31 |
| GGGCGAGAUUACCAUCUUGTT against Relt | inactive: -0.471 |
| GAGCCAGAAGAUAACCAAGTT against Dpm2 | inactive: -1.61 |
| GACUCUCCUGCUUUUACCUTT against Nat8f4 | inactive: -1.13 |
| GGUGAUGGAAUACCAAAGGTT against Dnajc28 | inactive: -0.736 |
| CCCAACUCGGUUUUUUUCUTT against Olfr1037 | inactive: 0.827 |
| GCUACGGAUGCUUUUCAAATT against Ube2i | inactive: -0.351 |
| GGACACCUGAUUUUCUUCUTT against Slc41a3 | inactive: -0.364 |
| GGAAAAUACAGCUUUGUAATT against Esyt2 | inactive: -0.0753 |
| GGGAUUAUAGGGCGCAUUGTT against Olfr685 | inactive: -1.01 |
| GGCGGUCUUUAUUUAGACATT against Dusp12 | inactive: 1.32 |
| GGAAAUGGGAAGUUUAAUCTT against Cdo1 | inactive: 1.62 |
| GGUGUACAGUCUGUUCCGATT against Ltbp2 | inactive: 1.41 |
| GCUUUUGAUAUUCCACGUUTT against Pole2 | inactive: 0.273 |
| CCGAAUGUUCCAUGUUUGUTT against Lrrc8d | inactive: 1.86 |
| GGCAGAGAAGGAGGCUAAGTT against Tcf7 | inactive: -0.197 |
